# Laboratory results published in PubChem BioAssay AID504444 (National Center for Advancing Translational Sciences (NCATS), 2011).
# About 7,500 (2.1%) of roughly 360,000 compounds were called active. The inconclusive results got no clear call from the source; some entries with a clear call stand among them for comparison. Calls come from the whole dose curve; as a rule, active = well fitted inhibition curve with a large enough effect; inconclusive = small, poorly fitted or top-dose-only effect, or effect the other way; inactive = flat fitted curve, though single readings scatter. Where the call is inconclusive, the potency comes from a doubtful curve fit. Some structures have more than one record in an assay (separate samples or runs), and their calls can disagree.
# Experiment: Nrf2 qHTS screen for inhibitors; note: nearly all actives have a fitted effect of over 60% in size
# Settings: A549 ARE-Fluc reporter, luciferase luminescence, 18-24 h; series mostly up to 46 µM
# How it was run: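 Cells were seeded and rested 2 h, then exposed to compounds for 18-24 h. CellTiter-Fluor was read first as a viability measure. BugLite was added 15 min before the final luminescent read of ARE-luciferase activity in A549 cells.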
# Potency is the fitted concentration of half-maximal effect.
row,Compound,Potency
1,CSc1ccc(CNC(=O)CCn2c(=O)c3cccn3c3ccc(F)cc32)cc1,"inconclusive: 32.6 µM [activator, single point]"
2,COc1ccc2c(C)nc(N/C(N)=N/S(=O)(=O)c3ccc(C)cc3)nc2c1,"inconclusive: 11.6 µM [falling, partial curve]"
3,O=C(C(=O)N1CCN(c2ccc([N+](=O)[O-])cc2)CC1)c1cn(CC(=O)N2CCOCC2)c2ccccc12,"inconclusive: 29.1 µM [falling, partial curve, poor fit]"
4,CC(=O)N1c2ccc(S(=O)(=O)N3CCC(C(=O)Nc4cccc(C)n4)CC3)cc2CC1C (stereo unspecified),active: 1.46 µM
5,Cc1cc(SC(C)C(=O)Nc2ncc(Cl)cc2Cl)nc2ccccc12 (stereo unspecified),"inconclusive: 6.51 µM [activator, partial curve]"
6,O=C(/C=C/c1ccc2c(c1)OCO2)c1ccc[nH]1,"inconclusive: 25.9 µM [activator, single point]"
7,Cc1ccc(-n2nc(CO)c(C(=O)NCCCc3ccccc3)n2)cc1,inactive
8,CCOC(=O)C(=CNc1cc(C(F)(F)F)ccc1N1CCOCC1)C(=O)OCC,inactive
9,O=C(Nc1ccccc1)N1CCC(c2ccccc2)C1 (stereo unspecified),"inconclusive: 0.651 µM [activator, full curve, poor fit]"
10,Cc1nn(C)c(C)c1NS(=O)(=O)c1ccc(OC(F)(F)F)cc1,"inconclusive: 7.31 µM [falling, partial curve, poor fit]"
11,CC1(C)CC(=O)C2=C(C1)NC(Nc1nc3ccccc3o1)=NC2c1ccccc1Cl (stereo unspecified),inactive
12,C/C(=N\Nc1cc(C)nc(NCc2ccccc2)n1)c1ccc([N+](=O)[O-])cc1,"inconclusive: 4.11 µM [falling, partial curve]"
13,Clc1ccc(CN2CCN(c3ncccn3)CC2)cc1Cl,"inconclusive: 23.1 µM [falling, single point]"
14,Cc1ccc(OP(=O)(Nc2c(C)n(C)n(-c3ccccc3)c2=O)Oc2ccc(C)cc2)cc1,"inconclusive: 18.4 µM [falling, single point]"
15,COc1ccc(C(=O)Nc2c(-c3cccs3)c(=O)c3ccccc3n2C)cc1,"inconclusive: 8.2 µM [activator, partial curve]"
16,O=C(Nc1nc2ccc([N+](=O)[O-])cc2s1)c1ccncc1,"inconclusive: 5.17 µM [activator, full curve]"
17,Cc1cc(C(=O)CSc2nnc(-c3ccco3)o2)c(C)n1CC1COc2ccccc2O1 (stereo unspecified),"inconclusive: 16.4 µM [falling, single point]"
18,CC(=O)C1=C(C)NC(=O)NC1c1cccs1 (stereo unspecified),"inconclusive: 0.517 µM [falling, full curve]"
19,Cc1ccc2nc(NC(=O)C3CCN(c4ncnc5sc(C)c(C)c45)CC3)sc2c1,"inconclusive: 1.16 µM [activator, full curve]"
20,CC1CCc2c(sc(NC(=O)c3noc4c3CCCC4)c2C(N)=O)C1 (stereo unspecified),"inconclusive: 6.51 µM [activator, partial curve]"
21,COc1cccc(C2c3c(ncn(-c4ccccc4)c3=N)Oc3ccc4ccccc4c32)c1 (stereo unspecified),active: 14.6 µM

row,Compound,Potency
1,C=CCCOc1ccccc1C(N)=O,"inconclusive: 20.6 µM [falling, partial curve, poor fit]"
2,CCOc1ccccc1NC(=O)c1oc2ccccc2c1NC(=O)C1CCCO1 (stereo unspecified),inactive
3,COc1ccc2oc(C(=O)N3CCc4ccccc43)c(C)c2c1,"inconclusive: 0.259 µM [activator, full curve]"
4,CC(OC(=O)c1ccc2ccccc2c1)C(=O)N(C)Cc1ccccc1 (stereo unspecified),"inconclusive: 29.1 µM [falling, single point]"
5,CC(=O)Nc1nonc1-c1nnc(SCC(=O)Nc2ccc(C)c(Cl)c2)n1-c1ccccc1,"inconclusive: 20.6 µM [falling, single point]"
6,CS(=O)(=O)c1nc(-c2ccc(Br)cc2)cc(-c2ccccc2)c1C#N,"inconclusive: 23.1 µM [falling, single point]"
7,COc1ccc(/C=C/C(=O)O)cc1S(=O)(=O)N1CCC(Cc2ccccc2)CC1,"inconclusive: 6.51 µM [falling, partial curve]"
8,O=C(O)/C=C/C(=O)c1ccc2c(c1)CCc1ccccc1-2,"inconclusive: 29.1 µM [falling, single point]"
9,CC(=O)c1ccc(NC(=O)c2ccc(-c3nc(COc4ccc(C)cc4)c(C)o3)cc2)cc1,"inconclusive: 0.92 µM [falling, full curve, poor fit]"
10,Cc1ccc(CCNC(=O)c2ccc3nc4ccccc4c(=O)n3c2)cc1,"inconclusive: 29.1 µM [falling, single point]"
11,CN(C)S(=O)(=O)c1ccc(Cl)c(NC(=O)CN2C(=O)NC3(CCCC3)C2=O)c1,"inconclusive: 2.06 µM [falling, single point]"
12,Cc1[nH][nH]c(=O)c1N=Nc1ccc(S(N)(=O)=O)cc1,"inconclusive: 16.4 µM [falling, partial curve, poor fit]"
13,CCOC(=O)c1cc(CC)sc1NC(=O)C1CC(=O)NN1Cc1ccccc1 (stereo unspecified),"inconclusive: 29.1 µM [falling, single point]"
14,CCOc1ccc(CCNC(=O)c2cc3sccc3n2C)cc1OCC,"inconclusive: 25.9 µM [falling, partial curve, poor fit]"
15,COc1ccc(-c2cn3nc(N4CCCC(C(=O)NCc5ccccc5OC)C4)sc3n2)cc1 (stereo unspecified),"inconclusive: 10.3 µM [activator, partial curve]"
16,Cc1ccc(NC(=O)CSc2nnc(-c3ccncc3)s2)cc1,inactive
17,CSc1nc2c(c(=O)[nH]1)C(c1cccs1)C1=C(CCCC1=O)N2 (stereo unspecified),inactive
18,CCOCCCn1c(=N)c(C(N)=S)cc2c(=O)n3cccc(C)c3nc21,inactive
19,Cc1occc1C(=O)N/N=C/C=C\c1ccccc1[N+](=O)[O-],"inconclusive: 18.4 µM [activator, single point]"
20,Cc1nn(-c2ccccc2)c(C)c1C(=O)OCC(=O)NC(=O)NC1CCCC1,"inconclusive: 20.6 µM [falling, partial curve]"
